Measurements as given in the supplement of paper PMC11006884.
Shown are results outside the selection of targets with a hit, which stands elsewhere. This is a noisy data set. Only a part is listed here, and it is no random draw.

Sequences of proteins named here, by UniProt entry; tags and fusion partners are left off. A change or cut given only in a name is not applied to a line headed by its entry.
UniProt O14745: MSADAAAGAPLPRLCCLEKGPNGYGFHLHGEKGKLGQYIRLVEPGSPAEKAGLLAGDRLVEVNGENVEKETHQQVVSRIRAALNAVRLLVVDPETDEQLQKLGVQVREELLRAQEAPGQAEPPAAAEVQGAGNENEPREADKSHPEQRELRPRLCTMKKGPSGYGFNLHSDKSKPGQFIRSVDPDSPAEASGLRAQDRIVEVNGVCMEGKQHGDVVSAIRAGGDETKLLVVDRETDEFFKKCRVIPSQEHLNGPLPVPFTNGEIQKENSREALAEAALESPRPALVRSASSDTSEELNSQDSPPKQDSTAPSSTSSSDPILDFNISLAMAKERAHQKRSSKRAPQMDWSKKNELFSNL
UniProt O15228: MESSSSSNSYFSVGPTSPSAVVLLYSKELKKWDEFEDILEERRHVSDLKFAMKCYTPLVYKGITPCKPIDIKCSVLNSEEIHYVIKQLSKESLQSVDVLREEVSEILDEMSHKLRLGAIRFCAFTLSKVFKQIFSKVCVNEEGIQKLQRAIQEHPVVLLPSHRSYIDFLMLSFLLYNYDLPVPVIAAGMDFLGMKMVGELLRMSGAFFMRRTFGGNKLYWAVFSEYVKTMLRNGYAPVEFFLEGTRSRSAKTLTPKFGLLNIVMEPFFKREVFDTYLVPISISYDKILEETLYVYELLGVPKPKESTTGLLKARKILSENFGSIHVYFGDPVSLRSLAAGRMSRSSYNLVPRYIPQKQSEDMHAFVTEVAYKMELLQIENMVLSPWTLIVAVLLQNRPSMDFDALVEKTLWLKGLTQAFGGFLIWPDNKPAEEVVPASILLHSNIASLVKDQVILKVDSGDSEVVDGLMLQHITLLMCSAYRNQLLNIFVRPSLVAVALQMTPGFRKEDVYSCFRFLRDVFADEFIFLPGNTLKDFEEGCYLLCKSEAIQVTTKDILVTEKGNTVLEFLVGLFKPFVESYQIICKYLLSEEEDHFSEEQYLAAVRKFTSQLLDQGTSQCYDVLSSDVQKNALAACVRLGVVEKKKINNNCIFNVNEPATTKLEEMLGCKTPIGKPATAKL
UniProt O00151: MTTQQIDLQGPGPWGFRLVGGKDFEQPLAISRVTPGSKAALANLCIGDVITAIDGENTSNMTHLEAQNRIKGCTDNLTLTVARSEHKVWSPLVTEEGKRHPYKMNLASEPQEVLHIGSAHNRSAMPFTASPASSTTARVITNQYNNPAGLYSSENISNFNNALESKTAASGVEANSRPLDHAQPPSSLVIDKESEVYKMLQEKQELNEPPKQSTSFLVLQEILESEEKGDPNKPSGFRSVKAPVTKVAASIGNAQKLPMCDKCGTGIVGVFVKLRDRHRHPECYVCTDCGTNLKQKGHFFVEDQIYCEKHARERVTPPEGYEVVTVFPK
UniProt O14497, whole entry, looked up: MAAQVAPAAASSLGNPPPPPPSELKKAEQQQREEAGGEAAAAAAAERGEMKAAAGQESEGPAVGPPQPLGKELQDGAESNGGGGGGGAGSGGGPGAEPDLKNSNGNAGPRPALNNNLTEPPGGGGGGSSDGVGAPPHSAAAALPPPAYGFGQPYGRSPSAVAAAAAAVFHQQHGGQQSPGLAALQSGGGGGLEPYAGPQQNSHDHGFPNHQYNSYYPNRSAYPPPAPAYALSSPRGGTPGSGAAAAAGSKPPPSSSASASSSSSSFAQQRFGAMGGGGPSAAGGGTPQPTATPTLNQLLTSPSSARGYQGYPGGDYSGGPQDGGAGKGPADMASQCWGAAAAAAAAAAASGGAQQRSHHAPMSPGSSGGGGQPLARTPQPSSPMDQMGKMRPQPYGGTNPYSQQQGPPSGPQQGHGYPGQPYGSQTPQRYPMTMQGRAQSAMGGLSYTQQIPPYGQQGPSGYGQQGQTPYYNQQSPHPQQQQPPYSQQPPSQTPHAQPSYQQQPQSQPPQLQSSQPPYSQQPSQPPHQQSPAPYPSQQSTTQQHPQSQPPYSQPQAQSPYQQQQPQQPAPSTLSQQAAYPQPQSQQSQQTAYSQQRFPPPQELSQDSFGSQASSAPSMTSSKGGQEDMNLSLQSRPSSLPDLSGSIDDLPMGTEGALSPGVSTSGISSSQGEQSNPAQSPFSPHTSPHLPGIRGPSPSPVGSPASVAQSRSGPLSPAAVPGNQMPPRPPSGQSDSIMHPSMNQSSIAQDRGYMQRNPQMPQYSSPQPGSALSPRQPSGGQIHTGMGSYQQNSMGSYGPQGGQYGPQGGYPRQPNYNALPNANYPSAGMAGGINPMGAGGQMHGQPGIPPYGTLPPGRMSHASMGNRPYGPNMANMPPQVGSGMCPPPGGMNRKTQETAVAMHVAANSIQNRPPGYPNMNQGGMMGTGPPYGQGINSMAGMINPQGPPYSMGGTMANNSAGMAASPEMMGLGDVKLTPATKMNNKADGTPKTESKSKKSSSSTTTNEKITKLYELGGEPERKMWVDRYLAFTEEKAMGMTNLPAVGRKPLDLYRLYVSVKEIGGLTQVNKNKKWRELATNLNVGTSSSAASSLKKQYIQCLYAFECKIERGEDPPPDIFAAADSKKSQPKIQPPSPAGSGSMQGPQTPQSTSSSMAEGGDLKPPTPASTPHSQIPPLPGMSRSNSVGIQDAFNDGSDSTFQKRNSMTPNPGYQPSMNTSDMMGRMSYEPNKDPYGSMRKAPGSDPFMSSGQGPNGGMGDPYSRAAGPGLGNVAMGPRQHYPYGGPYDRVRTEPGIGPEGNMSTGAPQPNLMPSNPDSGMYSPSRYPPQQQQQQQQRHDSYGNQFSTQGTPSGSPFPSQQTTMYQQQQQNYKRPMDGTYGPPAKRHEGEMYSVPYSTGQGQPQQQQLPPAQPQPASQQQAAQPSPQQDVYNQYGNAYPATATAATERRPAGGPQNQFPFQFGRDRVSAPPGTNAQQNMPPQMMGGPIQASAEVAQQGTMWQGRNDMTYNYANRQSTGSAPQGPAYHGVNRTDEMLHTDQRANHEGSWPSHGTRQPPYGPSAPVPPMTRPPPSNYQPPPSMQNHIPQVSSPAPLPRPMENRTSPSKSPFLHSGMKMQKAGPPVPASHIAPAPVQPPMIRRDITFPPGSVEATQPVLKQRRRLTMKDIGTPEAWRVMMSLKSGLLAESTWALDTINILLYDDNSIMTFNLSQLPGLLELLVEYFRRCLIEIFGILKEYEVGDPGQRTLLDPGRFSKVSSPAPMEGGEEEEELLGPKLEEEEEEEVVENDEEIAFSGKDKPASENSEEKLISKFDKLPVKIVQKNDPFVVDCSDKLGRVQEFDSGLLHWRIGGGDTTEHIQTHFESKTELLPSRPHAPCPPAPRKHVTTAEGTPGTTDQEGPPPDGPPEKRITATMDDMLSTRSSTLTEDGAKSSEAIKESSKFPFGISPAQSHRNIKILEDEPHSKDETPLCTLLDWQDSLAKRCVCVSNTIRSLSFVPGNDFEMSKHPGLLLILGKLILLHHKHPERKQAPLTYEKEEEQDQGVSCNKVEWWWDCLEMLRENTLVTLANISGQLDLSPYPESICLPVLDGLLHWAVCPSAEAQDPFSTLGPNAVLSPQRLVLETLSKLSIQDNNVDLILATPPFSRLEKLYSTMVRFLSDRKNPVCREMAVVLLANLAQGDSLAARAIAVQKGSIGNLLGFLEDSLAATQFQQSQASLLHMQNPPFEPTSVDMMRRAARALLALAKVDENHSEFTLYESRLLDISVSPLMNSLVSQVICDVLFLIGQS
UniProt O15381: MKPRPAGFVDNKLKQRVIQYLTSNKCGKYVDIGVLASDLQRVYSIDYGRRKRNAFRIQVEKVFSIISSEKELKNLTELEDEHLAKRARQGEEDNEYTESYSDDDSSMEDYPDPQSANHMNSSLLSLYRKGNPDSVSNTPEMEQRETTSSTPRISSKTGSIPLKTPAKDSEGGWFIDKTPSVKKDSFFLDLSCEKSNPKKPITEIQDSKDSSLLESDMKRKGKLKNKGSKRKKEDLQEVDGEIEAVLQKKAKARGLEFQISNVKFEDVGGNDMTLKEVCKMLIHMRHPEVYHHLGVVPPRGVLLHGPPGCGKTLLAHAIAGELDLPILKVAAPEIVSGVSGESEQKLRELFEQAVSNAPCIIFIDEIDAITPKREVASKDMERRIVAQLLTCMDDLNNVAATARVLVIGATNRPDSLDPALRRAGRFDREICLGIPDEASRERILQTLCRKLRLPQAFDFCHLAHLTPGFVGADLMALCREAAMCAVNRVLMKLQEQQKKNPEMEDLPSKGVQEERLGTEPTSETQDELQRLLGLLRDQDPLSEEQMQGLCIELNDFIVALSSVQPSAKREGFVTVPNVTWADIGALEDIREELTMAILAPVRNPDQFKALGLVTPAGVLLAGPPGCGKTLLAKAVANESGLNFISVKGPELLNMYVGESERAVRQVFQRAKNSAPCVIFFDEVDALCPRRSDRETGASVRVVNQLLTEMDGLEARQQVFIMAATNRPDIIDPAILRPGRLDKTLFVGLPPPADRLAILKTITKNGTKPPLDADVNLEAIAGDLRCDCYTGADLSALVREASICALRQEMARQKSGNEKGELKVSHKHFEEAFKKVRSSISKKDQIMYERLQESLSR
UniProt O15085: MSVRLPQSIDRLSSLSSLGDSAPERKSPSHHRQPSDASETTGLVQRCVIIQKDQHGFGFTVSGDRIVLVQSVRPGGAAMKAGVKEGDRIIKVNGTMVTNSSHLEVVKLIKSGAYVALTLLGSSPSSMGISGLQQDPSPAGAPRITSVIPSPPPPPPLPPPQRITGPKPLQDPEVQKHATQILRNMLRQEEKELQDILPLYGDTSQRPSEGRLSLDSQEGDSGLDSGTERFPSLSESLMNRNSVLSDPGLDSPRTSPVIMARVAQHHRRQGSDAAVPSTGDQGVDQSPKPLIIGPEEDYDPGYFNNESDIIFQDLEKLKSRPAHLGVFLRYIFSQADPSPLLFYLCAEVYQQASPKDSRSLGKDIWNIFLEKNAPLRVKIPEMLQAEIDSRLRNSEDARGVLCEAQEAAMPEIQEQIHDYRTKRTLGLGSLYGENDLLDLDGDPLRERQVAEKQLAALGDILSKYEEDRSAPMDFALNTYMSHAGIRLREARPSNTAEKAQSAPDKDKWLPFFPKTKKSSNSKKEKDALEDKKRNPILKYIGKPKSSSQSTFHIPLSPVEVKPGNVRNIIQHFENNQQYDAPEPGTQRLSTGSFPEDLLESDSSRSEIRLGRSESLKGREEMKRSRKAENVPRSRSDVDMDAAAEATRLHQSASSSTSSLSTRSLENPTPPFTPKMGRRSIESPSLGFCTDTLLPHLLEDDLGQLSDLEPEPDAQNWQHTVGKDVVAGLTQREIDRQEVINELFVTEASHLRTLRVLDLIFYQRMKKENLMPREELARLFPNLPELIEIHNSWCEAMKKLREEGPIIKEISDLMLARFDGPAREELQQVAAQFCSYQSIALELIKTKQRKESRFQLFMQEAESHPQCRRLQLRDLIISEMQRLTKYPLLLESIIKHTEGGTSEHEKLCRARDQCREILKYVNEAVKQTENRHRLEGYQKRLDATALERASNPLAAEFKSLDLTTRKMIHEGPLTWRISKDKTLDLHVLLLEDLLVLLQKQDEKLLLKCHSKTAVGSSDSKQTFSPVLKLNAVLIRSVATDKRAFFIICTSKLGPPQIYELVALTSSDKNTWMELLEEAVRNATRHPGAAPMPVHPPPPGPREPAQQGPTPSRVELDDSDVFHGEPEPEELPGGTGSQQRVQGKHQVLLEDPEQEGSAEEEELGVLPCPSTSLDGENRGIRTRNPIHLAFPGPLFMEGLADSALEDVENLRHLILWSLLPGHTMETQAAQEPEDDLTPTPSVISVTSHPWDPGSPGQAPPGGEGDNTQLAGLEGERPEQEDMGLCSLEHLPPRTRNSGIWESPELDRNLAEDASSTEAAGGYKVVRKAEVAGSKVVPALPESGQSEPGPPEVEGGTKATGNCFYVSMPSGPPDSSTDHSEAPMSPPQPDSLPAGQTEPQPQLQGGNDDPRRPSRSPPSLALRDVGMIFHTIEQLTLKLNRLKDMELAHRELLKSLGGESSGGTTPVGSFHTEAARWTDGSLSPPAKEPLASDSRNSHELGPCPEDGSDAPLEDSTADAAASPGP
UniProt O14733: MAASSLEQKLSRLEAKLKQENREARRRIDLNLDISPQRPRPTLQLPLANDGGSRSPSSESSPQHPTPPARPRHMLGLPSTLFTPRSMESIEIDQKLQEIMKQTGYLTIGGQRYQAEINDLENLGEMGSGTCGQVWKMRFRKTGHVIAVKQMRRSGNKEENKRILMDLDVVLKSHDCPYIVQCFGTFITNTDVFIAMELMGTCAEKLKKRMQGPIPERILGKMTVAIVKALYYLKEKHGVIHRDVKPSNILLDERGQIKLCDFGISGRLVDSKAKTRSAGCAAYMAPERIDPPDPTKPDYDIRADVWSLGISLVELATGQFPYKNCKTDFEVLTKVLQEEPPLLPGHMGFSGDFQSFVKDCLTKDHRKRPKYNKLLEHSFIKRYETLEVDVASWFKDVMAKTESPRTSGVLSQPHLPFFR

Each target was assayed with COC(=O)/C=C/c1ccccc1 [methyl cinnamate] (assay: log2 ratio of iodoacetamide-alkyne labeling of the cysteine site, DMSO over compound (competition); higher = stronger covalent engagement of the cysteine by the compound, active = 1 or more). Conditions: 500 µM; treatment time 1 h; system: HEK293T cell lysate.
Procedure, shortened: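 Three replicates, each with duplicate channels, were prepared from HEK293T lysate (2 mg/mL) treated with vehicle or electrophile at 500 µM for 1 h at ambient temperature. Iodoacetamide alkyne was then applied for 1 h, and samples were clicked to sCIP-TMT reagents, pooled, trypsin-digested overnight at 37 °C, enriched on streptavidin, acid-eluted and analysed on Orbitrap Eclipse LC-MS/MS with FAIMS, with FragPipe quantification. The log2 competition ratio per cysteine is the mean control-channel divided by the mean compound-channel reporter intensity. Cysteines quantified in only one replicate were left out.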

log2 ratio of iodoacetamide-alkyne labeling, inactive:
NDC80 C449 (UniProt O14777) -0.116
PHGDH C254 (UniProt O43175) 0.0288
MPHOSPH10 C27 (UniProt O00566) 0.145
UniProt O43159_C451 0.19
IPO5 C750 (UniProt O00410) 0.102
SLC9A3R1 C16 (UniProt O14745) 0.0571
GAK C190 (UniProt O14976) 0.0641
TRAFD1 C476 (UniProt O14545) 0.66
DNM1L C446 (UniProt O00429) 0.119
GNPAT C650 (UniProt O15228) 0.421
ARVCF C770 (UniProt O00192) -0.0993
EIF3D C195 (UniProt O15371) -0.019
HGS C190 (UniProt O14964) 0.00595
SUPT5H C740 (UniProt O00267) 0.0441
PEX7 C5 (UniProt O00628) 0.21
AP3B1 C507 (UniProt O00203) 0.121
UniProt O00213_C672 0.205
POLRMT C726 (UniProt O00411) 0.342
ARHGAP6 C769 (UniProt O43182) 0.275
POLRMT C925 (UniProt O00411) -0.13
PDLIM1 C73 (UniProt O00151) 0.197
SPTBN2 C2070 (UniProt O15020) 0.331
CASK C633 (UniProt O14936) 0.248
UniProt O00148_C197 -0.001
DVL2 C412 (UniProt O14641) 0.153
TCERG1 C1062 (UniProt O14776) 0.0362
PRPF4 C237 (UniProt O43172) 0.253
ARID1A C336 (UniProt O14497) 0.409
DNM1L C367 (UniProt O00429) 0.0777
DDX3X C298 (UniProt O00571) 0.254
NVL C687 (UniProt O15381) -0.0614
AP3D1 C348 (UniProt O14617) 0.215
ARHGEF11 C1500 (UniProt O15085) 0.178
DDX3X C128 (UniProt O00571) 0.198
SIVA1 C62 (UniProt O15304) -0.0611
IRS4 C381 (UniProt O14654) 0.126
IRS4 C1065 (UniProt O14654) 0.264
UniProt O14733_C131 -0.15

Retrieved one by one from above (2):
log2 ratio of iodoacetamide-alkyne labeling, inactive:
TRAFD1 C476 (UniProt O14545) 0.66
GAK C190 (UniProt O14976) 0.0641
